At least one structure is not confirmed: it was looked up by name or label, or the drawing left a doubt.
Legend:
[1] = Residual content of coenzyme in glucose detection reagent after storage at 32° C. and 85% relative air humidity; format: physicochemical
Procedure: carbaNAD (FIG. 1A) or NAD were added to the glucose-specific GlucDH. These formulations were each applied to Pokalon foils (Lonza) and, after drying, stored under warm and humid conditions (32° C., 85% relative air humidity). Subsequently, the reaction kinetics and the function curve were determined at regular intervals. In parallel at each of the measurement times a cNAD/NAD analysis and a determination of the residual activity of the enzyme were carried out.
According to this the residual content of cNAD in a glucose detection reagent is still about 80% of the initial value after 24 weeks storage (at 32° C. and 85% relative air humidity), whereas the content of NAD in a glucose detection reagent stabilized with NAD is already reduced to about 35% of the initial value after 5 weeks and, by extrapolation, is reduced to zero after about 17 weeks.

[2] = target: T1, alcohol dehydrogenase (ADH) (Saccharomyces cerevisiae, UniProt P00330); test: Storage of alcohol dehydrogenase detection solution with NAD or cNAD (Tables 1 and 2); format: biochemical, yeast; conditions: 16 mmol/l coenzyme
T1 sequence (P00330 1-348): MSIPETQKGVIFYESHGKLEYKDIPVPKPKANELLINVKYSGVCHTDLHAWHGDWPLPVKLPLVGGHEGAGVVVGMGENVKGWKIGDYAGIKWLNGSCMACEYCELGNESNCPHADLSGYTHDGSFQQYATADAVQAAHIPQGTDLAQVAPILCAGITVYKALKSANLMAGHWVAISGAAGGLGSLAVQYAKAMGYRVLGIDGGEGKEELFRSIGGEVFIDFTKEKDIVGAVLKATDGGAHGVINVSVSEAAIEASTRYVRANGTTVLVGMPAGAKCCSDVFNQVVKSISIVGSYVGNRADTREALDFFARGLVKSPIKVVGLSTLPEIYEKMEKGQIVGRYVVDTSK
Procedure: cNAD or NAD was added to a detection solution containing alcohol dehydrogenase. These mixtures were stored at 2-8° C. and at 35° C. Subsequently, the stability of alcohol dehydrogenase (ADH) was checked at regular intervals and the residual activity of the enzyme was determined.
If alcohol dehydrogenase is stored together with native NAD or with cNAD for several months at 2-8° C. in a refrigerator, then one observes in the case of […] a considerable decrease in enzyme activity over the entire storage period. Whereas the difference after 2 weeks storage is still slight, there is an approximately 20% higher residual activity of alcohol dehydrogenase after 12 months storage in the presence of 16 mM cNAD compared to a corresponding solution containing 16 mM NAD as the coenzyme.
Accordingly, the residual activity of alcohol dehydrogenase can be increased somewhat in samples that have been stored for 2 weeks at 2-8° C. by increasing the concentration of cNAD.

diaphorase = test: Enzyme activity in test strips stored up to 18 weeks (Table 7); format: biochemical
Procedure: In order to evaluate the stabilization of glucose dehydrogenase and diaphorase by carbaNAD, a number of test strips were prepared in analogy to Example 5.
The test strips were stored over a period of 18 weeks at temperatures of 5° C. (KS, refrigerator), 25° C. (RT), 30° C. (GT), 35° C. (DT) and 45° C. (HT), and the enzyme activity in the test strips was determined at the start of storage (0 weeks), after 6 weeks, after 9 weeks, after 12 weeks and after 18 weeks. The results are shown in Table 6 (glucose dehydrogenase) and in Table 7 (diaphorase).

[3] = target: L lactate dehydrogenase (from rabbit) (Oryctolagus cuniculus, UniProt P13491); test: DSC of coenzyme binding; conditions: 3.8 mM ligand; 0.1 M Tris buffer, pH 8.5
[4] = test system: L-lactate dehydrogenase (porcine); test: DSC of coenzyme binding; conditions: 3.8 mM ligand; 0.1 M Tris buffer, pH 8.5
alcohol dehydrogenase = target: T2, alcohol dehydrogenase (Saccharomyces cerevisiae, UniProt P00330); test: DSC of coenzyme binding; conditions: 3.8 mM ligand; 0.75M glycine sodium pyrophosphate, pH 9.0
T2 sequence (P00330 1-348): T1 sequence (P00330 1-348)

Compound: NC(=O)c1ccc[n+]([C@@H]2O[C@H](COP(=O)([O-])OP(=O)(O)OC[C@H]3O[C@@H](n4cnc5c(N)ncnc54)[C@H](O)[C@@H]3O)[C@@H](O)[C@H]2O)c1 [NAD, nicotinamide adenine dinucleotide, reference compound]
- residual content of coenzyme in glucose detection reagent ([1]; 5 weeks storage at 32° C. and 85% relative air humidity): about 35 % of the initial value
- time after which coenzyme content is reduced to zero ([1]; by extrapolation, 32° C. and 85% relative air humidity): about 17 weeks
- ADH activity U/ml (initial value) [2]: 142.2 U/ml
- Enzyme activity, diaphorase (diaphorase; 0 weeks (start of storage)): 2.7 U/cm^2
- Enzyme activity, diaphorase (diaphorase; DT (35° C.), 6 weeks): 1.5 U/cm^2
- Enzyme activity, diaphorase (diaphorase; DT (35° C.), 9 weeks): 1.8 U/cm^2
- Enzyme activity, diaphorase (diaphorase; DT (35° C.), 12 weeks): 2.4 U/cm^2
- Enzyme activity, diaphorase (diaphorase; DT (35° C.), 18 weeks): 2.8 U/cm^2
- Enzyme activity, diaphorase (diaphorase; GT (30° C.), 12 weeks): 2.4 U/cm^2
- Enzyme activity, diaphorase (diaphorase; GT (30° C.), 18 weeks): 2.8 U/cm^2
- Enzyme activity, diaphorase (diaphorase; HT (45° C.), 6 weeks): 1.5 U/cm^2
- Enzyme activity, diaphorase (diaphorase; HT (45° C.), 9 weeks): 1.1 U/cm^2
- Enzyme activity, diaphorase (diaphorase; KS (5° C.), 6 weeks): 2.2 U/cm^2
- Enzyme activity, diaphorase (diaphorase; KS (5° C.), 9 weeks): 2.4 U/cm^2
- Enzyme activity, diaphorase (diaphorase; KS (5° C.), 12 weeks): 3.3 U/cm^2
- Enzyme activity, diaphorase (diaphorase; KS (5° C.), 18 weeks): 3.7 U/cm^2
- Enzyme activity, diaphorase (diaphorase; RT (25° C.), 6 weeks): 2.3 U/cm^2
- Enzyme activity, diaphorase (diaphorase; RT (25° C.), 9 weeks): 2.2 U/cm^2
- Enzyme activity, diaphorase (diaphorase; RT (25° C.), 12 weeks): 2.8 U/cm^2
- Enzyme activity, diaphorase (diaphorase; RT (25° C.), 18 weeks): 3.4 U/cm^2
- TM [3]: 60.1 °C
- ΔHcal [3]: 72 kcal/mol
- TM [4]: 61.8 °C
- ΔHcal [4]: 85 kcal/mol
- TM (alcohol dehydrogenase): 55.5 °C
- ΔHcal (alcohol dehydrogenase): 300 kcal/mol

From patent US9540702B2, “Stabilization of enzymes with stable coenzymes” (Roche Diabetes Care, Inc., priority 2009, dated 2017)
